Measured values published in paper PMC9950535, “Divalent metal cofactors differentially modulate RadA-mediated strand invasion and exchange in Saccharolobus solfataricus” (Bioscience Reports, 2023).
For at least one entry, the source does not settle the construct or the ends of the probe. No signal at the amounts used counts as a negative. Where a protein sequence is shown, tags need not be part of it.

Molecular target: T1, SsoRadA (Saccharolobus solfataricus) (UniProt Q55075)
T1 sequence (looked up, limits assumed): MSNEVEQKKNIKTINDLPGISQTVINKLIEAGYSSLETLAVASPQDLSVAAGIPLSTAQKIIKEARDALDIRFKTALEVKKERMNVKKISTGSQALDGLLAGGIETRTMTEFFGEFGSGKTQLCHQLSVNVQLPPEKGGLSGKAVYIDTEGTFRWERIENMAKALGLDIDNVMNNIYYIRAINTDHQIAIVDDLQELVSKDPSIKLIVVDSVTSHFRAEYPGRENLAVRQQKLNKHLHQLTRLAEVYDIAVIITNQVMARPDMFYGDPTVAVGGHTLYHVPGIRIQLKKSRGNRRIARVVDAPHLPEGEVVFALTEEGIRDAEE
Experiment: filter binding
Settings: Filter binding: 40 mM HEPES pH 7.0, 50 mM KCl, 10 mM CaCl2, MgCl2 or MnCl2, 20 pmol SsoRadA, 3 uM ATP where included, ssDNA varied, temperature not stated, recombinant protein, single-stranded DNA; for binding result: no ATP, no detectable binding at ssDNA 10-fold above the Kd with ATP

## ACAGCACCAATGAAATCTATTAAGCTCCTCATCGTCCGCAAAAATATCGTCACCTCAAAAGGA [63-mer oligonucleotide]
10 mM Ca2+, 3 uM ATP
  Kd: 187 nM
10 mM Ca2+
  binding result: no binding
10 mM Mg2+
  binding result: no binding
